Reference: PMC13289029
Results are given in words; binding and its absence hold for the method and conditions named. In cells and extracts the contact can be indirect. Here binding means that the protein was enriched with, or labelled near, the bait; the list need not be complete.

B1: SMU_723 (protein, UniProt Q8DV01 1-893)
chain: MFKKQKRDSFYVQDEKTVLSGLESSKKGLTSTQAKQRLADYGYNELEEDEKRTILAKFIDQFKDLMIIILLVAAALSVITEGMGGLTDAIIILVVVVLNAAFGVYQEGQAEAAIEALKSMSSPHARVRRDGHVTEIDSKELVPGDVVLLEAGDVVPADMRLLEAASLKIEEAALTGESVPVEKSVTVAIASDAGIGDRLNMAYQNSNVTYGRGMGVVTNTGMYTEVGHIAGMLANADETDTPLKQSLDNLSKVLTYVIIIIAIITCLVGIFVRHEEPLEGLMVAVALAVAAIPEGLPAIVTVVLSLGTKTLAKRQSIVRKLPAVETLGSTEIIASDKTGTLTMNQMTVEKVYYNGRLVDANDDIDVNNMALRVMNFANDSKVDANGKLIGDPTETALVQYGFDHNFDIREVLKAELRVAELPFDSDRKLMSTIHKLDGEKYLIAVKGAPDQLLKRITQIEIDGSIRPITEDDKKAILDMNKSLAKQALRVLMIAYKYESEIPKLETAVVENDLIFAGLVGMIDPERPEAAEAVHVAKEAGIRPIMITGDHQDTAEAIAKRLGIIDDDGIDHVFTGAELNELSDEEFQKVFKQYSVYARVSPEHKVRIVKAWQNDGKIVAMTGDGVNDAPSLKTADIGIGMGITGTEVSKGASDMVLADDNFATIIVAVEEGRKVFSNIQKSIQYLLSANMAEVFTIFFATLFGWDVLQPVHLLWINLVTDTLPAIALGVEPAEPGVMTHKPRGRKSSFFSGGVMGAIIYQGILQTLLVLGVYGWAVFFPEHATRTEIHADALTMAFATLGLIQLVHAYNVKSVYQSIFKVGFFKNKTFNWALPTALIIMLATIVIPGFNRFFHVSHLSVTQWCVVVGGSLAMFVIVEIVKAIQRVLGQDQKAI
B2: PttB (protein, UniProt I6L905 1-655)
chain: MGKFEKDAKVLLDAIGGKENVSAVTHCATRMRFVLNDESKADVKTIEAIPAVKGTFTNAGQFQIIIGNDVPLFYNDFTAVSGIEGVSKETAKSAAKSHQNPIQRVMTLLAEIFTPIIPAIIVGGLILGFRNVIDQVQWGFLDGQTIAQHSQFWSGISSFLWLPGEAIFQFLPVGIVWSVSRKMGTSQILGIVLGICLVSPQLLNAYNVASTPAAEIAKKWVWDFGFFTVRRIGYQGQVIPALLAGLSLSYLEIFWRKKIPEVVSMIFVPFLSLIPALILAHTVLGPIGWTIGQWISTIVYAGLTGPVKWLFGAIFGALYAPFVITGLHHMTNAIDTQLVADTGGTGLWPMIALSNIAQGSAVFAYYLMNRHEEREAQVSLPATISAYLGVTEPALFGVNIKYVYPLVAGMIGSSIAGFLSVTFNVTANAIGIGGLPGILSIKVKYMLPFFIIMLVAIAVPMVLTVFFRRINFLTKSEDEAHQEKTETAEISASEKTNEPAVGTTFEIKSPLKGQVKPLSEAVDPVFAQGVMGQGVLIDPSEGLLTSPVNGVVSVLFPTKHALGLVTDQGLELLIHIGMDTVNLEGKGFETYVKQGDTIKVGDKLIRFDIDAIHQAGYTTETPVIVTNQNDYQPDVVGSLPREIERGEVLLTASKI

How the values were obtained:
[1] = molecular target: DacA-FLAG (Streptococcus mutans UA159); experiment: affinity purification with mass spectrometry; crosslinked; cells in PBS with 1% formaldehyde 20 min at room temperature, quenched with 0.125 M glycine, then lysate on anti-FLAG M2 affinity gel 3 h at 4°C, FLAG peptide elution; UA159 as no-FLAG control; hits at least twofold enriched with spectral counts >10
[2] = molecular target: DacA-FLAG (Streptococcus mutans UA159); experiment: affinity purification with mass spectrometry; non-crosslinked; lysate of mid-log S. mutans DacA-FLAG strain (150 mM NaCl, 10% glycerol, 100 mM Na-phosphate pH 7.0, 1% Triton X-100) on anti-FLAG M2 affinity gel 3 h at 4°C, FLAG peptide elution; UA159 as no-FLAG control; hits at least twofold enriched with spectral counts >10

Binder	binding [1]	binding [2]
B1	binds	binds
B2	binds	binds
